Reference: PubChem BioAssay AID1347426 (Functional Genomics Laboratory (NCATS/FGL), 2020)
Among all 31,000 sequences or so, about 1,400 (4.5%) were called active.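 Rule for the calls: active = median seed-adjusted z-score above 1 or below -1; inactive = the rest.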 This is one part of the list.

Assay: Novel Modifiers of Survival Motor Neuron (SMN) Protein: Gene Identification via Genome-wide siRNA Screen;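 note: luminescence tracks full-length SMN protein made from the SMN2 reporter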
Conditions: HEK293T SMN2-luciferase reporter, siRNA knockdown, 72 h; actives lie on both sides
Procedure, shortened: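 HEK293T cells stably carrying an SMN2 promoter/splicing cassette–luciferase reporter were reverse-transfected with 1 pmol siRNA per well (druggable-genome library, 3 siRNAs per gene) and grown 72 h at 37 °C. Luminescence, normalized to negative-control siRNA and log10-transformed, was scored as MAD.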
In the case of CGAUAGCACCUUCCUGUUUTT against GALT, the median seed-adjusted z-score is reported as inactive: 0.484.
With GGACCUCCCUGUGAAUGAUTT against OAZ2 the median seed-adjusted z-score was inactive: 0.66.
With GCUAAGAACAGAAAGGACATT against KRT9 the median seed-adjusted z-score was inactive: 0.545.
With CAAAGACGAUGACUUCGAATT against MAP2K2 the median seed-adjusted z-score was inactive: -0.502.
For GGAGAAUUACGAUUAGGGATT against CSNK1G3, the median seed-adjusted z-score was inactive: 0.
For GGUGAGCCCUCUCCUAAGATT against HMGA2, the median seed-adjusted z-score was inactive: -0.327.
With GGAUGACGGAGUAAUCUUATT against BCMO1 the median seed-adjusted z-score was inactive: 0.53.
For GAGGAUUAGUAGAUCACAATT against RG9MTD2, the median seed-adjusted z-score was inactive: -0.599.
With GACCUUGACUCGGCUAUAATT against ATAD1 the median seed-adjusted z-score was inactive: -0.544.
In the case of GGAGCAAGUCUGAAGCUGATT against KRT76, the median seed-adjusted z-score is reported as inactive: 0.726.
For CCAACACCUAAGUCACGCATT against SLC25A12, the median seed-adjusted z-score was inactive: -0.275.
In the case of GCUGCACGACUUUACCCAATT against PIK3CG, the median seed-adjusted z-score is reported as inactive: 0.576.
In the case of AGAGGCUACUUUGAAAACATT against APOBEC3H, the median seed-adjusted z-score is reported as inactive: 0.256.
For UGGAAUCUGUGGUAAAGAATT against HGS, the median seed-adjusted z-score was active: 1.16.
In the case of GAACCAGAGAUUAUAAGAATT against PRIM1, the median seed-adjusted z-score is reported as inactive: -0.23.
With CUGUGGAAUCUGUACCCUUTT against TRIM35 the median seed-adjusted z-score was inactive: -0.0463.
In the case of GAGCGAUUACAGCAAAUAUTT against KRT12, the median seed-adjusted z-score is reported as inactive: -0.0457.
With CAGCUUCCUUACUAUGAAATT against RBM11 the median seed-adjusted z-score was inactive: -0.0341.
For GGUUAGUCAGAUACGAAAATT against PI4K2B, the median seed-adjusted z-score was inactive: 0.0345.
With GCGUUAAGUCUAAAUGAGATT against PCDHA12 the median seed-adjusted z-score was inactive: 0.0761.
With GGCAUAUAAUUAUAGAGGATT against TXNDC10 the median seed-adjusted z-score was inactive: -0.0542.
In the case of ACAACCCUCUUAAAACUAATT against IGF2, the median seed-adjusted z-score is reported as inactive: -0.0306.
With CCCGAGAACUUAAUCGCUATT against ADAMTS16 the median seed-adjusted z-score was inactive: -0.133.
For GGUAAACGAGAUCAACUUUTT against DVL3, the median seed-adjusted z-score was inactive: -0.57.
For CACUGAUUUUGGAUGCUCUTT against HES1, the median seed-adjusted z-score was inactive: -0.262.
For CAAUGGAUCCUGUAUCCAATT against TNFAIP6, the median seed-adjusted z-score was inactive: 0.
For CGGCUAUGACAAGUCAAUATT against PKDREJ, the median seed-adjusted z-score was inactive: 0.376.
With GCAUUGGAACUCUUAACUATT against KRR1 the median seed-adjusted z-score was inactive: -0.0353.
For GGAUCAAUCGUGUCACCGATT against OGDH, the median seed-adjusted z-score was inactive: 0.253.
With UCCUAGAUAUCAUCCUGAATT against KCNH4 the median seed-adjusted z-score was inactive: -0.769.
For CCAGCACAGUAGGACCUCATT against LPAL2, the median seed-adjusted z-score was inactive: 0.7.
With GGAUAGGAUUCAGAGUUCATT against GALNT5 the median seed-adjusted z-score was inactive: -0.279.
In the case of GAGGUUCCAGUAAACGAAATT against UPF2, the median seed-adjusted z-score is reported as inactive: -0.376.
In the case of GUAACAUCUGAGACAGAUATT against AKT3, the median seed-adjusted z-score is reported as inactive: -0.0936.
In the case of GCAGAUCACAUGAAGAGAATT against DHX38, the median seed-adjusted z-score is reported as inactive: -0.723.
With GCCUUCAGAUGUUGCAAUUTT against ZNF700 the median seed-adjusted z-score was inactive: 0.
In the case of GAUGAUGAAUUAGUAAUGATT against CYP20A1, the median seed-adjusted z-score is reported as inactive: -0.796.
With GGAUCAAGAAGACACUACATT against ACVRL1 the median seed-adjusted z-score was inactive: -0.361.
With GGAAUGCUUUAGUCGUGGATT against EHD4 the median seed-adjusted z-score was inactive: 0.333.
For CCGACUACCUGAUCCUACUTT against GPR152, the median seed-adjusted z-score was inactive: -0.9.
In the case of CAAACGACCCAGACGAAGATT against SIGLEC6, the median seed-adjusted z-score is reported as inactive: 0.0176.
In the case of GCAUCCAGUUUCUACCCUATT against LDHAL6A, the median seed-adjusted z-score is reported as inactive: -0.15.
In the case of GUUAACAAGUGGAAUGGAATT against FBXW7, the median seed-adjusted z-score is reported as inactive: 0.
With CAUGAUACAGGGAAUAAAATT against ZNF619 the median seed-adjusted z-score was inactive: -0.536.
In the case of GCAGCACUGAGAUUAGGCATT against LIMA1, the median seed-adjusted z-score is reported as inactive: -0.359.
In the case of GCUCCGCACUAGAUCUAUUTT against STK24, the median seed-adjusted z-score is reported as inactive: 0.0531.
With CGCUCUACCAUGUACUCUATT against SEMA5B the median seed-adjusted z-score was inactive: 0.641.
With CAUGACUUCUGAUAAUGCATT against ATG4C the median seed-adjusted z-score was inactive: -0.414.
For GCUGUACUCCCUUACAUUATT against PSMD10, the median seed-adjusted z-score was inactive: 0.265.
In the case of AUAUCACAAUACACUGUGATT against FCGR1B, the median seed-adjusted z-score is reported as inactive: 0.2.
With CCUCAUUGAUCAUCACCGATT against ZNF567 the median seed-adjusted z-score was inactive: -0.114.
For AGGACAUCAGCGAAACCAATT against KCNH3, the median seed-adjusted z-score was inactive: -0.509.
In the case of GUAUAUUCAUGGAUCUGAATT against BMP8B, the median seed-adjusted z-score is reported as inactive: 0.
With CCCAUGGACUACGCCUUUATT against DMRTA2 the median seed-adjusted z-score was inactive: 0.252.
For GGCGGAGCCUUAAUGAUGATT against ATN1, the median seed-adjusted z-score was inactive: -0.357.
For GUAUGCUCCCGAUCAAGUATT against APOBEC3A, the median seed-adjusted z-score was inactive: 0.467.
With CUAUGAACAGUGUCAAAUATT against PIGB the median seed-adjusted z-score was inactive: 0.199.
In the case of ACAGCACAUGAGACAGAUATT against CBX1, the median seed-adjusted z-score is reported as inactive: 0.
With UGAUGAGCUGCAAAAUGUATT against CLDN7 the median seed-adjusted z-score was inactive: 0.0208.
In the case of GGAAAUUGACUUUCUAAAATT against KRT84, the median seed-adjusted z-score is reported as inactive: -0.645.
For CGAGGACGAUGACUGCUUATT against LRP8, the median seed-adjusted z-score was inactive: -0.547.
For GGUGGGAACCUAUCAUACATT against MEP1A, the median seed-adjusted z-score was inactive: 0.209.
In the case of CAACUCCACCUUCGCCUAATT against MIF, the median seed-adjusted z-score is reported as inactive: 0.214.
For GCCGGAGUUUUGAAUGAAATT against HSD17B2, the median seed-adjusted z-score was inactive: 0.521.
With GCGGCUCUCUGUUGACUAUTT against TUBA4A the median seed-adjusted z-score was inactive: -0.594.
With GCCUUUAUCUCUCUCACCATT against ZNF670 the median seed-adjusted z-score was inactive: 0.
With GGAAGAUUGUAUCUGAUUATT against CPA4 the median seed-adjusted z-score was inactive: -0.182.
For GAUGCAAACUAGUCCUGAATT against MLC1, the median seed-adjusted z-score was inactive: -0.284.
In the case of CCACUACGGUAUUAGAGCATT against CDH19, the median seed-adjusted z-score is reported as inactive: -0.409.
With GGAAAAUCCCAAAAUGGAATT against PDIK1L the median seed-adjusted z-score was inactive: 0.0682.
In the case of UGCUGAGGGUGUUCCCAGATT against GABRR2, the median seed-adjusted z-score is reported as inactive: 0.
In the case of GGCAAUUCGUUGAUGUAUATT against UCHL3, the median seed-adjusted z-score is reported as inactive: 0.378.
With CCAGCAAUUUCACAAGGAATT against NONO the median seed-adjusted z-score was inactive: 0.555.
With CCUCGUCGAUCGUGCAUCUTT against ADRA2C the median seed-adjusted z-score was inactive: 0.
For CUGCGAAUCCAAUUAUUUATT against HCRTR2, the median seed-adjusted z-score was inactive: -0.236.
With GAGUGAGGACGGAAGAUCATT against APH1A the median seed-adjusted z-score was inactive: 0.741.
For CCCUCAAACUCGCAACAAATT against ABL2, the median seed-adjusted z-score was inactive: 0.293.
For GCAUGCUGCUGGCAGAUCATT against GSTP1, the median seed-adjusted z-score was inactive: -0.61.
For CCACUUCCAUCUCAAGCGATT against GABRA3, the median seed-adjusted z-score was inactive: -0.281.
In the case of GCUAUUAGAGCAUUCUAAATT against BAG2, the median seed-adjusted z-score is reported as inactive: -0.87.
In the case of GUAACGAAUUUACAACUGUTT against CXADR, the median seed-adjusted z-score is reported as inactive: 0.872.
With CAAACCCGUUAAUCACUAUTT against TEK the median seed-adjusted z-score was inactive: -0.347.
In the case of CAUAGUAGAUCAAAUCUUATT against ZNF284, the median seed-adjusted z-score is reported as inactive: 0.21.
In the case of GUCUCGCUGUGAUAGAUCATT against ELN, the median seed-adjusted z-score is reported as inactive: -0.149.
In the case of CUAUGAUUACGGACAUGGATT against KHDRBS3, the median seed-adjusted z-score is reported as inactive: 0.0681.
In the case of AGAUCCGAGUGAAUGCAGUTT against DCXR, the median seed-adjusted z-score is reported as inactive: -0.394.
For CGUUUUUGACAACUACUCUTT against RAC3, the median seed-adjusted z-score was inactive: 0.477.
With GUCGAUGACUUGAAGAACATT against P11 the median seed-adjusted z-score was inactive: 0.14.
With GCACGGGCCUUGUUAUCAATT against PLD5 the median seed-adjusted z-score was inactive: -0.0377.
In the case of CAAUUUCGCUCCAAAUAUUTT against SLC39A8, the median seed-adjusted z-score is reported as inactive: 0.265.
In the case of GAGACUUGGGAGAACCUAATT against LRTM1, the median seed-adjusted z-score is reported as inactive: 0.492.
For GCUUUAGUCUUGAUCAUGATT against NOX3, the median seed-adjusted z-score was inactive: 0.04.
In the case of GGAAAGGACUAAAAUACAATT against APOBEC3F, the median seed-adjusted z-score is reported as inactive: -0.315.
For GUCGCAUAGUAGAUAUACATT against SOS1, the median seed-adjusted z-score was inactive: 0.
In the case of GGUCGAUAAUCCUAACUAUTT against CLGN, the median seed-adjusted z-score is reported as inactive: 0.18.
In the case of AACUACUCCCUGCUACUCATT against HES2, the median seed-adjusted z-score is reported as inactive: -0.186.
For AUGUCCGACUUAUUCGAGATT against MAP1LC3B, the median seed-adjusted z-score was inactive: -0.0749.
In the case of CCAUCACGGCAGUUUGCAATT against RORB, the median seed-adjusted z-score is reported as inactive: 0.044.
In the case of GACAUUGUUUCAUCCUCCATT against MECP2, the median seed-adjusted z-score is reported as inactive: -0.332.
In the case of GGAUGGUUGUGAGCCGCUATT against ZNF784, the median seed-adjusted z-score is reported as inactive: 0.291.
With GAAAGUUGUUUGUCAUGUUTT against ARR3 the median seed-adjusted z-score was inactive: -0.0936.
For GGAGCAUUGGUUUUCGGGATT against HEYL, the median seed-adjusted z-score was inactive: 0.48.
For GCAAAUCUUCCUUCAACAATT against PTF1A, the median seed-adjusted z-score was inactive: 0.482.
For GCCCAUGUCCCAAAUCACATT against PDE4A, the median seed-adjusted z-score was inactive: -0.147.
With GGACCUGAGAGUAAGCACATT against ZDHHC8 the median seed-adjusted z-score was inactive: 0.
With CAGAGAACAUUAUCAAGGATT against SYP the median seed-adjusted z-score was inactive: -0.0289.
With CACUCGCAUUUGGAGUAAATT against NPY2R the median seed-adjusted z-score was inactive: 0.121.
For CGUAUGAUCUUUCUGGGAATT against AGMAT, the median seed-adjusted z-score was inactive: -0.0269.
